{"sequences": {"note": "The chains behind the UniProt entries cited, without tags or fusion partners. Where a name states a change or a piece, a line headed by the entry shows the natural chain unless it says otherwise.", "UniProt Q9BZP6": "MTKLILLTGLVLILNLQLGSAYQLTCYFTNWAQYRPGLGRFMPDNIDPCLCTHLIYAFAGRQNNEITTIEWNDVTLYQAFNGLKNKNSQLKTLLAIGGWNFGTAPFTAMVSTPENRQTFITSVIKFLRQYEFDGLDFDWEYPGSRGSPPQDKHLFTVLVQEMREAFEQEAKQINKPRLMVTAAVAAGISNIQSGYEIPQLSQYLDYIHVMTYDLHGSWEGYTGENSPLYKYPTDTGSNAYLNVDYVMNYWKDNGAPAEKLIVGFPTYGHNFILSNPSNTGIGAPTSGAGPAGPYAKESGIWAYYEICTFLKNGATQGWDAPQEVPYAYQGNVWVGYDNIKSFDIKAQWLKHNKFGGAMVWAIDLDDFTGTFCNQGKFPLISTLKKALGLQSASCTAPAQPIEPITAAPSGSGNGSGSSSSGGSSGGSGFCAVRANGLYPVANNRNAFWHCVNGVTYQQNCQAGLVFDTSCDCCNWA"}, "source": "patent US20070071746A1", "about": "“C/CLP antagonists and methods of use thereof” (MEDIMMUNE, INC., priority 2005, published 2007)", "molecular_target": "human acidic mammalian chitinase (AMCase), full length (human) (UniProt Q9BZP6)", "assay": "ELISA; ELISA on recombinant hAMCase; OD read at 62.5 ng/ml (down to 1000 ng/ml for +/-)", "note": "No constants are given. Whether binding was seen depends on the method and setting."}
{"binder": "Z8 (antibody, V domains shown) VH: EVQLLESGGGLVQPGGSLRLSCAASGFTFSPYLMWWVRQAPGKGLEWVSYISSSGGYTSYADSVKGRFTISRDNSKNTLYLQMNSLRAEDTAMYYCARMYYYDSSGYPSFDYWGQGTLVTVSS VL: QSALTQPPSASGTPGQRVTISCSGSGSNIGSNTVNWYQQLPGTAPKLLIYSSNQRPSGVSDRFSGSKSVASASLAINGLQSEDEADYYCAGWDDSLNGPVFGGGTKLTVL", "values": [{"measurement": "binding", "value": "no binding"}]}
